Results are given in words; binding and its absence hold for the method and conditions named. For part of these data: Binding seen in cells or lysates may run through a third protein. Some entries that bind do so weakly or less than the wild type. For part of these data: Where a sequence is shown, tags or fusion partners need not be part of it.
Assays:
[1] = target: T1, IRF7 (UniProt Q92985); experiment: co-IP
T1 sequence: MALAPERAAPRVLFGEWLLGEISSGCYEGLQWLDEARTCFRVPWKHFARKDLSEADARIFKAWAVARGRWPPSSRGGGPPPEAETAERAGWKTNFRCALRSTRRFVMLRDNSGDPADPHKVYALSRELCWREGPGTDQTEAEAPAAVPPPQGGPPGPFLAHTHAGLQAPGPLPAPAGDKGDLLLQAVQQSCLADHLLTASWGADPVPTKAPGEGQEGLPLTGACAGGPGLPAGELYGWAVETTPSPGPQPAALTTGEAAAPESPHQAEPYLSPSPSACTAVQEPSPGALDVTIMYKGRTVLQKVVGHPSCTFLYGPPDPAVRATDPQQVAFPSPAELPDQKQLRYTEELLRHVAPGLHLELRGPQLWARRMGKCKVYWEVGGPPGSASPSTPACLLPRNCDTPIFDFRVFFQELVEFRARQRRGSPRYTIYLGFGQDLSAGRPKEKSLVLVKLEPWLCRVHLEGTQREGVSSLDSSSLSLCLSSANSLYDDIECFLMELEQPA

The chains behind the UniProt entries cited, without tags or fusion partners.
UniProt Q7Z434: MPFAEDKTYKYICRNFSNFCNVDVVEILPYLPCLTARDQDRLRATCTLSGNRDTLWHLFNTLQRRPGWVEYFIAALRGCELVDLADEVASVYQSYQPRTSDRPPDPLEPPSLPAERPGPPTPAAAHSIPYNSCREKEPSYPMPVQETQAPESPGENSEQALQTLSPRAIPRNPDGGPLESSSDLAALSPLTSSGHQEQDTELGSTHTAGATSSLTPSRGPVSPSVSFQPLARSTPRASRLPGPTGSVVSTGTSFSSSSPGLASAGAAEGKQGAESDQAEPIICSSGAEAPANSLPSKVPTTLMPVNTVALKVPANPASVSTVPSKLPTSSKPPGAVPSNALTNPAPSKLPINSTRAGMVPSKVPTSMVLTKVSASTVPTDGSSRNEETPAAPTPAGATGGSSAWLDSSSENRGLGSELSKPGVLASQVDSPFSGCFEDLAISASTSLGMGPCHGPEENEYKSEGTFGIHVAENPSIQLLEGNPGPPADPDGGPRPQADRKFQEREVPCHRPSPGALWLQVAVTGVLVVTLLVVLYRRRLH

[2] = target: MAVS (UniProt Q7Z434); experiment: co-IP
[3] = target: T2, Flag-TBK1 (TANK-binding kinase-1) (UniProt Q9UHD2); experiment: co-IP
T2 sequence: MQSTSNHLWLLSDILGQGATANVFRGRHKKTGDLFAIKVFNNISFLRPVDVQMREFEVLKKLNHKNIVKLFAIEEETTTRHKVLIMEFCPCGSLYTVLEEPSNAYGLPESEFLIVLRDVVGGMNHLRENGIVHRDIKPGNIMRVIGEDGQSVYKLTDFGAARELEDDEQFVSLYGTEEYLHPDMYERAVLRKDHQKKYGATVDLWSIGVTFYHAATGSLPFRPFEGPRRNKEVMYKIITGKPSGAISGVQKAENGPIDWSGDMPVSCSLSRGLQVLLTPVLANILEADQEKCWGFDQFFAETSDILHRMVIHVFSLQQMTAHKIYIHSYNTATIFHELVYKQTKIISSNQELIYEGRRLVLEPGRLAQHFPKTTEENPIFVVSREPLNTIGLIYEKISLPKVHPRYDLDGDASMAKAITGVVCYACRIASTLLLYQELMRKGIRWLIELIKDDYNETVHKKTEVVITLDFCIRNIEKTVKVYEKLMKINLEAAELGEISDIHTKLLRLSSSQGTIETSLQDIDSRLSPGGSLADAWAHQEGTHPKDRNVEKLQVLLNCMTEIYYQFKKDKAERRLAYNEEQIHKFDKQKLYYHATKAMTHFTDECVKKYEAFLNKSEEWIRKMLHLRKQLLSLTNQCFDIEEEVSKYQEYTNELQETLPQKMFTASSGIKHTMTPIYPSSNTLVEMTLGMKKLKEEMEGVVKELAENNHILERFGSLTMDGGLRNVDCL

[4] = target: HA-NSP9 (SARS-CoV-2 non-structural protein 9) (SARS-CoV-2) (UniProt P0DTD1); experiment: co-IP
[5] = target: T3, Flag-TBK1 (TANK-binding kinase-1), Q9UHD2; experiment: co-IP; details: remark: other sources report otherwise
T3 chain: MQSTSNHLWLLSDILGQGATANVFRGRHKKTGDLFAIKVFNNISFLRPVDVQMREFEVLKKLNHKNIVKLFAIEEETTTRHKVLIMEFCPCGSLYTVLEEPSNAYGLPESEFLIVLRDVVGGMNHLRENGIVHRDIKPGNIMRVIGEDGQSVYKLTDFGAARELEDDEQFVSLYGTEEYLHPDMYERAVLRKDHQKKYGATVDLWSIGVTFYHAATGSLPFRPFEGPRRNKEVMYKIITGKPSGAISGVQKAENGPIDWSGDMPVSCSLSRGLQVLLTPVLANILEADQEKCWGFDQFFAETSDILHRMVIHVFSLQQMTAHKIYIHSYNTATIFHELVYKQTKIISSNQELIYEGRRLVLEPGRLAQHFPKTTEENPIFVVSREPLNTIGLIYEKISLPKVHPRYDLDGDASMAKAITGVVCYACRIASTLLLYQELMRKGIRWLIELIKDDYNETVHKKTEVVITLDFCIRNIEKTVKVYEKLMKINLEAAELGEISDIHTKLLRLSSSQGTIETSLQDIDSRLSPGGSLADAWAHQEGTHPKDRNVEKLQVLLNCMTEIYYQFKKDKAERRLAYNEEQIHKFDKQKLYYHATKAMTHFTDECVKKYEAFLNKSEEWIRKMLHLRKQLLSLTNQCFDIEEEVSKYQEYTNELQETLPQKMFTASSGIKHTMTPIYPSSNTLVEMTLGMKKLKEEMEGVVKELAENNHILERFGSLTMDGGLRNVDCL

[6] = target: T4, IRF3 in L929 cells (mouse (endogenous in L929)), P70671; experiment: native gel or EMSA; details: remark: other sources report otherwise
T4 chain: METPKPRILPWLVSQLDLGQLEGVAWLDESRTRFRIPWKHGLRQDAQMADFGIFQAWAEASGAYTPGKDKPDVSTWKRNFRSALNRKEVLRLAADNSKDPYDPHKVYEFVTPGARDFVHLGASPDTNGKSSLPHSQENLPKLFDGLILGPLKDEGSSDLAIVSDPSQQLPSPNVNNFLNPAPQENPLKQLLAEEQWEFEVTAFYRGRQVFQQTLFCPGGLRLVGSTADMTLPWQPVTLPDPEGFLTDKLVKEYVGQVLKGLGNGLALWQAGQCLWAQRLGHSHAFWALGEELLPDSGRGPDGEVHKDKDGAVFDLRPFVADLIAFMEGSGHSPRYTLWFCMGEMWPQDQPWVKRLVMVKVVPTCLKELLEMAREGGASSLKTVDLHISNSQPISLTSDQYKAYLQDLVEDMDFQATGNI

**Q.** With “HA-NSP9 (SARS-CoV-2 non-structural protein 9) (from UniProt P0DTD1)” as the molecule, how does the binding [1] read?
**A.** no binding

**Q.** What about the binding [2] of the same molecule?
**A.** no binding

B1: IRF3 (protein, UniProt Q14653 1-427)
chain: MGTPKPRILPWLVSQLDLGQLEGVAWVNKSRTRFRIPWKHGLRQDAQQEDFGIFQAWAEATGAYVPGRDKPDLPTWKRNFRSALNRKEGLRLAEDRSKDPHDPHKIYEFVNSGVGDFSQPDTSPDTNGGGSTSDTQEDILDELLGNMVLAPLPDPGPPSLAVAPEPCPQPLRSPSLDNPTPFPNLGPSENPLKRLLVPGEEWEFEVTAFYRGRQVFQQTISCPEGLRLVGSEVGDRTLPGWPVTLPDPGMSLTDRGVMSYVRHVLSCLGGGLALWRAGQWLWAQRLGHCHTYWAVSEELLPNSGHGPDGEVPKDKEGGVFDLGPFIVDLITFTEGSGRSPRYALWFCVGESWPQDQPWTKRLVMVKVVPTCLRALVEMARVGGASSLENTVDLHISNSHPLSLTSDQYKAYLQDLVEGMDFQGPGES
**Q.** Which binding [3] does the source give for B1 here?
**A.** binds

B2: Midline 1 (MID1), co-expressed with NSP9 (enzyme, UniProt O15344 1-667)
chain: METLESELTCPICLELFEDPLLLPCAHSLCFNCAHRILVSHCATNESVESITAFQCPTCRHVITLSQRGLDGLKRNVTLQNIIDRFQKASVSGPNSPSETRRERAFDANTMTSAEKVLCQFCDQDPAQDAVKTCVTCEVSYCDECLKATHPNKKPFTGHRLIEPIPDSHIRGLMCLEHEDEKVNMYCVTDDQLICALCKLVGRHRDHQVAALSERYDKLKQNLESNLTNLIKRNTELETLLAKLIQTCQHVEVNASRQEAKLTEECDLLIEIIQQRRQIIGTKIKEGKVMRLRKLAQQIANCKQCIERSASLISQAEHSLKENDHARFLQTAKNITERVSMATASSQVLIPEINLNDTFDTFALDFSREKKLLECLDYLTAPNPPTIREELCTASYDTITVHWTSDDEFSVVSYELQYTIFTGQANVVSLCNSADSWMIVPNIKQNHYTVHGLQSGTKYIFMVKAINQAGSRSSEPGKLKTNSQPFKLDPKSAHRKLKVSHDNLTVERDESSSKKSHTPERFTSQGSYGVAGNVFIDSGRHYWEVVISGSTWYAIGLAYKSAPKHEWIGKNSASWALCRCNNNWVVRHNSKEIPIEPAPHLRRVGILLDYDNGSIAFYDALNSIHLYTFDVAFAQPVCPTFTVWNKCLTIITGLPIPDHLDCTEQLP
**Q.** For B2, which binding [4] is on record?
**A.** binds

B3: Flag-TBK1 (TANK-binding kinase-1), Q9UHD2 1-729 (enzyme)
chain: MQSTSNHLWLLSDILGQGATANVFRGRHKKTGDLFAIKVFNNISFLRPVDVQMREFEVLKKLNHKNIVKLFAIEEETTTRHKVLIMEFCPCGSLYTVLEEPSNAYGLPESEFLIVLRDVVGGMNHLRENGIVHRDIKPGNIMRVIGEDGQSVYKLTDFGAARELEDDEQFVSLYGTEEYLHPDMYERAVLRKDHQKKYGATVDLWSIGVTFYHAATGSLPFRPFEGPRRNKEVMYKIITGKPSGAISGVQKAENGPIDWSGDMPVSCSLSRGLQVLLTPVLANILEADQEKCWGFDQFFAETSDILHRMVIHVFSLQQMTAHKIYIHSYNTATIFHELVYKQTKIISSNQELIYEGRRLVLEPGRLAQHFPKTTEENPIFVVSREPLNTIGLIYEKISLPKVHPRYDLDGDASMAKAITGVVCYACRIASTLLLYQELMRKGIRWLIELIKDDYNETVHKKTEVVITLDFCIRNIEKTVKVYEKLMKINLEAAELGEISDIHTKLLRLSSSQGTIETSLQDIDSRLSPGGSLADAWAHQEGTHPKDRNVEKLQVLLNCMTEIYYQFKKDKAERRLAYNEEQIHKFDKQKLYYHATKAMTHFTDECVKKYEAFLNKSEEWIRKMLHLRKQLLSLTNQCFDIEEEVSKYQEYTNELQETLPQKMFTASSGIKHTMTPIYPSSNTLVEMTLGMKKLKEEMEGVVKELAENNHILERFGSLTMDGGLRNVDCL
**Q.** B3 was tested. Which binding [5] did it give?
**A.** binds

B4: IRF3 in L929 cells, P70671 1-419 (protein)
chain: METPKPRILPWLVSQLDLGQLEGVAWLDESRTRFRIPWKHGLRQDAQMADFGIFQAWAEASGAYTPGKDKPDVSTWKRNFRSALNRKEVLRLAADNSKDPYDPHKVYEFVTPGARDFVHLGASPDTNGKSSLPHSQENLPKLFDGLILGPLKDEGSSDLAIVSDPSQQLPSPNVNNFLNPAPQENPLKQLLAEEQWEFEVTAFYRGRQVFQQTLFCPGGLRLVGSTADMTLPWQPVTLPDPEGFLTDKLVKEYVGQVLKGLGNGLALWQAGQCLWAQRLGHSHAFWALGEELLPDSGRGPDGEVHKDKDGAVFDLRPFVADLIAFMEGSGHSPRYTLWFCMGEMWPQDQPWVKRLVMVKVVPTCLKELLEMAREGGASSLKTVDLHISNSQPISLTSDQYKAYLQDLVEDMDFQATGNI
**Q.** How did the binding [6] turn out when B4 was run?
**A.** binds

Reference: publication PMC10580797
